Assay results taken from publication PMC3824344.
No constants are given. Whether binding was seen depends on the method and setting. In cells and extracts the contact can be indirect. Some binding calls cover weakened binding; strength is not graded here.

Chains of the proteins cited; added tags and fusions are not shown.
UniProt Q9CXW3: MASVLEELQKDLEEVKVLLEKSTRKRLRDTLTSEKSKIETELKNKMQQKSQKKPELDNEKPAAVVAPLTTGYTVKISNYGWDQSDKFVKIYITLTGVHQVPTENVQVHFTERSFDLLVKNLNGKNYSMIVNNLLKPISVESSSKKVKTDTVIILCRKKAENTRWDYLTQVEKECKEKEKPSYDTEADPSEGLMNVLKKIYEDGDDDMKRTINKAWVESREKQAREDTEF
UniProt P63280: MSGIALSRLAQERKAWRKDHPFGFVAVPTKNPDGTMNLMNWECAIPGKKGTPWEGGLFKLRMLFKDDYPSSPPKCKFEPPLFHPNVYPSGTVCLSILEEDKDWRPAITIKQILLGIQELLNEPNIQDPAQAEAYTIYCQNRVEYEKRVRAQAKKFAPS

Target: CacyBP/SIP-3xFLAG (Calcyclin binding protein and Siah-1 interacting protein, 3xFLAG-tagged) (mouse) (UniProt Q9CXW3)
Assay: co-IP; NB2a cells co-transfected with Ubc9-HA and CacyBP/SIP-3xFLAG; 800 ug of extract protein incubated with anti-FLAG M2 agarose resin 3 h at 4 C in IP buffer (50 mM Tris-HCl pH 7.5, 50 mM KCl, 1 mM EDTA, 1 mM MgCl2, 0.1 % Triton X-100, 20 mM NEM); elution with 0.1 M glycine-HCl pH 3.5; Western blot with anti-Ubc9 and anti-CacyBP/SIP

binding: binds
Substance: Ubc9-HA (E2 SUMO conjugating enzyme Ubc9, HA-tagged) (from UniProt P63280 1-158)
